Earlier results, collected in patent US10526439B2, “High dielectric breakdown strength resins” (priority 2017, dated 2020).
Some of these results come from one statement about several compounds together.

Conditions: property list in text; species and route not given

SMILES: C=Cc1ccc(C(C)(C)C)cc1 [Monomer 1, 4-tert butyl styrene]
- low acute toxicity (LD50): > 2000 mg/Kg body weight
